Results of single-concentration screens

Protein sequences, listed by entry. Tags and fused reporters are not part of them.
UniProt P9WFT3, whole entry: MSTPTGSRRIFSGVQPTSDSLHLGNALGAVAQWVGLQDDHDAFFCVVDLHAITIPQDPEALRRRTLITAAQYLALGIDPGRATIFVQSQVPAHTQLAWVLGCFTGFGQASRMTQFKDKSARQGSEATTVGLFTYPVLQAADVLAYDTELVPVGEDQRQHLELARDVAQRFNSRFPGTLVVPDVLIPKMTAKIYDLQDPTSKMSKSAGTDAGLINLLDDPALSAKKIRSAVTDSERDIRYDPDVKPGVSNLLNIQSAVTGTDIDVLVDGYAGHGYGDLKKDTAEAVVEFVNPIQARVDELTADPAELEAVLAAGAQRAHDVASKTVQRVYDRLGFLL
UniProt P9WNZ1, whole entry: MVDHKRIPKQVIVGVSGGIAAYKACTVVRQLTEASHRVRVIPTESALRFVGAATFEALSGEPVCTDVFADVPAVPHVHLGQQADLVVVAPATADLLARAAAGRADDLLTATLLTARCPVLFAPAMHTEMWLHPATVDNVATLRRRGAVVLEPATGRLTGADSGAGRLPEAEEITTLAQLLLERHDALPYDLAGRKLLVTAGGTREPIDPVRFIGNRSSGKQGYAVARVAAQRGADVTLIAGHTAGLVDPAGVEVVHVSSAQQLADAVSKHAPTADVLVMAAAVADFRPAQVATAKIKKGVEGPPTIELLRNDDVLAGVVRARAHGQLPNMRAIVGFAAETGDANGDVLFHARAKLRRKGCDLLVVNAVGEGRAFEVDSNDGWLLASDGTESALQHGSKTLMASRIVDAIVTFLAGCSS

Leishmania in macrophages: 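Cell assay of Leishmania donovani living inside macrophages; the read-out is not stated. Concentration: 30 µM. The record gives no direction; compounds that gave an IC50 in retests scored well above the rest, so higher reads as stronger inhibition. About 69,000 compounds were tested under these conditions; 1.5% (about 1,000) showed 50% or more at least once.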
MtTrpRS: 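Enzyme assay of tryptophanyl-tRNA synthetase; the read-out is not stated. Target: Tryptophan-tRNA ligase, Mycobacterium tuberculosis (UniProt P9WFT3). Tested at 10 µM. Direction is not recorded; retested compounds ran higher, which suggests that high means inhibition. About 65,000 compounds were tested under these conditions; 0.098% (about 64) showed 50% or more at least once.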
Toxoplasma: 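Assay of Toxoplasma gondii numbers, read through their beta-galactosidase reporter with a colour substrate. Concentration: 10 µM. Higher reads as fewer parasites (inferred from which compounds were picked for retests). Of about 67,000 compounds tested this way, about 260 (0.38%) reached 50% or more in at least one test.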
CoaBC: 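Coenzyme A biosynthesis protein CoaBC, Mycobacterium tuberculosis (UniProt P9WNZ1). Enzyme assay of CoaBC with a phosphate dye (Biomol Green) read at 650 nm. Tested at 30 µM. Direction is inferred from only a few compounds that gave an IC50; most scored high, so higher reads as stronger inhibition. Most strong results did not repeat in a second test. About 67,000 compounds were tested under these conditions; 0.06% (about 40) showed 50% or more at least once.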

Results are given as percent effect. The controls that fix the scale are not given in the record; negative values are as filed. Compounds were drawn at random from those tested, without regard to their results. Two or more numbers in one place are separate tests of the same structure; such repeats can differ widely. A dash means the value is not listed here; it may have been measured.

Compound,Leishmania in macrophages,MtTrpRS,Toxoplasma,CoaBC
CCc1nnc(Sc2nn3cc(C)nc3s2)n1C,-5.218%,1.016%,8.652%,3.929%
O=C(CN1CCCC(c2ccc(C(=O)O)cc2)C1)NC1CC1 (stereo unspecified),23.13%,6.767%,-4.718%,2.632%
CC(=O)NC1CCN(c2ncnc3c2c(C)nn3C)C1 (stereo unspecified),22.81%,2.58%,6.872%,-
COCCN1CCO[C@H]2CN(C(=O)c3cccs3)C[C@H]21,-,1.647%,-,-
O=C1CN(C(=O)CC2C(=O)NCCN2CC2CCCCC2)CCN1 (stereo unspecified),-6.855%,4.852%,18.11%,6.012%
CC(=O)N(Cc1ncc(C(C)C)o1)C1CCN(CCC#N)C1 (stereo unspecified),8.972%,-4.935%,16.32%,5.355%
O=C(O)C(F)(F)F.[H][C@]12CCN(S(C)(=O)=O)CC[C@@]1([H])S(=O)(=O)CCN2Cc1cccc(C)n1,-11.28% and -1.874%,-,1.071%,-
Cn1cccc1C(=O)N1CCC(c2nnc(Cn3ccnc3)n2C)CC1,31.49%,2.768%,-32%,-0.8078%
Cl.O=C(CCn1c(C(F)(F)F)cc2cccnc21)N1CCCC1,-0.9218% and 15.24%,-,17.72%,-
Cc1ccc(C(=O)N2CCN(CC(O)c3ccc(F)cc3)CC2)s1 (stereo unspecified),20.1%,1.887%,-1.835%,2.66%
O=C(O)C(F)(F)F.[H][C@@]12COC[C@H](NS(C)(=O)=O)[C@]1([H])CN(Cc1ccc(C)s1)C2,4.014%,-,7.098%,-
Cc1noc(C(C)C)c1C(=O)NCC(c1ccccc1)N(C)C (stereo unspecified),23.46%,-4.172%,-12.83%,10.31%
O=S(=O)(NCC(O)c1cccs1)c1ccccc1Cl (stereo unspecified),-2.084% and 17.95%,7.523%,18.4%,9.937%
Cc1cc(C2CCC2)nc(N(C)CCc2ccccn2)n1,23.18%,0.6988%,-23.75%,-5.934%
O=C(NCCNc1ncccn1)C1CCN(CC(F)(F)F)CC1,-2.736%,-1.956%,5.801%,-2.728%
Cc1cc(CN2CCN(CC(O)c3ccc(Cl)cc3)CC2)no1 (stereo unspecified),26.49%,-8.138%,-42.37%,4.462%
OCC(O)CSCc1nnc(-c2ccc(Cl)cc2)o1 (stereo unspecified),-0.8616%,7.43%,1.826%,-
Cc1ccc(CN2Cc3ccnn3CC(C(=O)NCC3CC3)C2)o1 (stereo unspecified),-,-2.571%,-,2.343%
O=C(O)C(F)(F)F.O=C1CCCN1Cc1nnc2n1CCCN(Cc1ccco1)C2,10.02%,-,15.3%,-
NC(=O)C1(c2cnccn2)CCCN1Cc1ccccn1 (stereo unspecified),11.15% and 18.03%,-,4.151%,1.453%
Cc1ccc(CN2CCC3(CC(C(=O)NCC4CC4)=NO3)C2)s1 (stereo unspecified),-0.7713%,5.111%,1.76%,11.2%
Cc1cnn(CC2CCCN2C(=O)c2cc3ccccc3[nH]2)c1 (stereo unspecified),27.8%,2.111%,3.131%,5.641%
O=C(O)C(F)(F)F.[H][C@@]12CCN(C3CCOCC3)C[C@@]1([H])[C@H](C(=O)NC1CC1)CCO2,29.27%,-,15.13%,-
O=C(O)C(F)(F)F.O=C(O)C(F)(F)F.[H][C@]12C[C@@H](C(=O)Nc3cccnc3)CO[C@@]1([H])CCN(CCC)C2,21.37%,-,-6.298%,-
Cc1ncsc1C(=O)N(Cc1cccs1)C1CC1,7.953%,-1.872%,0.4695%,0%
CC(=O)NCC(=O)N1CCn2cc(CN3CCN(C)CC3)nc2C1.O=C(O)C(F)(F)F.O=C(O)C(F)(F)F,37.06%,-,11.61%,-
Cc1cccc(CN(Cc2ccc(C)o2)C2CC(C)(C)NC(C)(C)C2)n1.O=C(O)CC(O)(CC(=O)O)C(=O)O,22.5%,-,-6.855%,-
O=C(O)C(F)(F)F.O=C(O)C(F)(F)F.[H][C@@]12CN(Cc3ccc(OC)cc3)C[C@]1([H])OCCN2CC1CCCO1 (stereo partly specified),34.42%,-,3.604%,-
Cc1nonc1NC(=O)CCn1cc(Br)ccc1=O,11.26%,14.27%,1.693%,4.466%
Cc1nn(C)c(N(C)C)c1CNCc1ccnn1C,-15.18%,-1.556%,-3.904%,2.554%
CN1CCCC(CNC(=O)N2CCN(Cc3ccon3)CC2)C1 (stereo unspecified),3.571%,2.309%,-1.652%,-10.27%
Cc1[nH]ncc1C(=O)N(CC(C)C)CC(O)c1ccc(F)cc1 (stereo unspecified),-64.96%,-4.392%,-7.1%,-1.942%
Cc1noc(-c2ccc(N(C)Cc3ccncn3)nc2)n1,-30.26%,-3.043%,4.26%,-2.331%
CC(C)(C)n1ncc(NCc2ccccc2)c(Cl)c1=O,27.56%,3.931%,6.064%,-4.194%
O=C(c1ccc2[nH]ccc2c1)N1CCCCC1c1nc[nH]n1 (stereo unspecified),-12.03%,3.577%,14.19%,11%
Cc1noc(CN(Cc2cccc(C#N)c2)Cc2cccs2)n1,-4.12%,-0.3589%,1.827%,5.665%
O=C(O)C(F)(F)F.O=C(O)C(F)(F)F.O=C(O)C(F)(F)F.[H][C@@]12CCN(Cc3ccccn3)C[C@]1([H])[C@@H](CN(C)Cc1ccco1)OC2,22.56%,-,1.748%,-
Cc1cc(C)cc(C(=O)NCCCC2(C3OCCO3)CCOCC2)c1,7.999%,-4.712%,3.462%,10.49%
O=C(O)C(F)(F)F.O=C(O)C(F)(F)F.O=C(O)C(F)(F)F.[H][C@@]12OCCN(Cc3ccccn3)[C@@]1([H])CC[C@H]2OCCN1CCCC1,-16.05%,-,3.526%,-
O=C(CC1CC1)N1CCc2ncc(CN3CCOCC3)n2CC1,-,0.1564%,-,5.25%
CN1CCCN(C(=O)c2csc(-c3ccc(C(F)(F)F)cc3)n2)CC1,-34.88%,0.9762%,5.468%,0.3589%
CN(Cc1ccccc1CN1CCCC1)C(=O)c1c(O)cccc1O,13.16%,-0.5623%,-4.599%,-25.81%
CCNC(=O)C1CCCN(C(=O)Nc2cc(C#N)ccc2OCC)C1 (stereo unspecified),20.12%,-2.77%,-8.554%,2.789%
[H][C@@]12COC[C@@H](CC(=O)N3CCCC3)[C@]1([H])CN(Cc1ccsc1)C2,-5.797%,-,1.72%,-
CC(=O)N1CC(=O)N(c2cccnc2)CC12CCN(Cc1nccs1)C2.O=C(O)C(F)(F)F.O=C(O)C(F)(F)F (stereo unspecified),-14.41%,-,1.408%,-
Cc1nn(C)c(N(C)C)c1CNCc1cccc(Cn2cccn2)c1,0.4848%,5.717%,-6.319%,-6.438%
Cc1cc(CC(C)Nc2ncc(C)c(N(C)C)n2)[nH]n1 (stereo unspecified),-17.17%,2.347%,-9.238%,2.664%
CCc1nc(C)c(C(=O)NCCN2CCCC2)s1,23.26%,0.8518%,-7.913%,-6.166%
c1cncc(CN2CCc3c(nnn3CC3CC3)C2COCC2CC2)c1 (stereo unspecified),-,0.6975%,-,-22.69%
COCC1CN(Cc2ccoc2)Cc2cn(CC3CCOCC3)nc21 (stereo unspecified),-17.54%,-3.246%,0.9798%,-2.648%
Cn1ccc(C(=O)NC2CCC23CCN(C(=O)c2ccnnc2)CC3)c1 (stereo unspecified),-40.16%,1.399%,22.88%,0.2538%
[H][C@]12CCN(C(=O)c3ccccn3)CC[C@@]1([H])S(=O)(=O)N(CC(C)C)C2,10.28%,-,-6.768%,-
CN(C)C(=O)CN1C[C@@H]2CC[C@H](C1)N(Cc1cc(F)ccc1F)C2,-,-2.549%,-,-29.89%
O=C(O)C(F)(F)F.[H][C@@]12CCN(c3ccc(C)nn3)C[C@]1([H])CN(C(=O)c1ccn(C)n1)C2,13.57%,-,-0.03446%,-
Cc1cc(N2CCCC2c2cccnc2)nc(C)n1 (stereo unspecified),-1.841%,-0.6721%,11.14%,3.194%
COC(=O)CC(c1ccc(OC)c(OC)c1)c1oc(C)cc(=O)c1O (stereo unspecified),-42.84%,2.256%,-3.615%,-2.632%
O=C(Nc1ccc(CCN2CCC(O)CC2)cc1)Nc1cccnc1,-9.396%,-2.554%,-3.462%,-18.12%
Cn1cc(CN2C[C@@H]3COC[C@@H](C(=O)N4CCCCO4)[C@@H]3C2)cn1,-,-2.996%,-,-2.332%
NC(=O)C1CCN(C(=O)CCCc2nnc(-c3ccccc3)o2)C1 (stereo unspecified),-11.05%,-1.038%,-35.28%,4.545%
c1cc(CNCc2ccnc(N3CCOCC3)c2)c2c(c1)OCCCO2,32.73%,-0.4617%,-12.5%,1.381%
COc1ccc(C(=O)NCc2ccon2)cc1F,19.09%,-0.315%,-2.292%,0.2558%
O=C(CCc1ccco1)Nc1ncn(CC(=O)N2CCCCCC2)n1,4.673%,-0.5236%,7.564%,5.782%
Cc1oc(-c2ccc(Cl)cc2)nc1C(=O)NC1=NCCS1,-26.21%,0.2244%,18.33%,11.78%
Cc1nc(CCC(=O)N2Cc3cnc(-c4ccccc4)nc3C2)n[nH]1,9.086%,-4.262%,1.586%,2.851%

The values are deposited in ChEMBL (CHEMBL3988442, “University of Dundee, Small-Polar-MMV Screening Library” (2021)).